Data from article PMC7856738.
Results are given in words; binding and its absence hold for the method and conditions named. Binding seen in cells or lysates may run through a third protein. Some results given as binding are weak or reduced against the parent protein; the word gives no strength.

Chains of the proteins cited; added tags and fusions are not shown.
UniProt Q9Y5S2: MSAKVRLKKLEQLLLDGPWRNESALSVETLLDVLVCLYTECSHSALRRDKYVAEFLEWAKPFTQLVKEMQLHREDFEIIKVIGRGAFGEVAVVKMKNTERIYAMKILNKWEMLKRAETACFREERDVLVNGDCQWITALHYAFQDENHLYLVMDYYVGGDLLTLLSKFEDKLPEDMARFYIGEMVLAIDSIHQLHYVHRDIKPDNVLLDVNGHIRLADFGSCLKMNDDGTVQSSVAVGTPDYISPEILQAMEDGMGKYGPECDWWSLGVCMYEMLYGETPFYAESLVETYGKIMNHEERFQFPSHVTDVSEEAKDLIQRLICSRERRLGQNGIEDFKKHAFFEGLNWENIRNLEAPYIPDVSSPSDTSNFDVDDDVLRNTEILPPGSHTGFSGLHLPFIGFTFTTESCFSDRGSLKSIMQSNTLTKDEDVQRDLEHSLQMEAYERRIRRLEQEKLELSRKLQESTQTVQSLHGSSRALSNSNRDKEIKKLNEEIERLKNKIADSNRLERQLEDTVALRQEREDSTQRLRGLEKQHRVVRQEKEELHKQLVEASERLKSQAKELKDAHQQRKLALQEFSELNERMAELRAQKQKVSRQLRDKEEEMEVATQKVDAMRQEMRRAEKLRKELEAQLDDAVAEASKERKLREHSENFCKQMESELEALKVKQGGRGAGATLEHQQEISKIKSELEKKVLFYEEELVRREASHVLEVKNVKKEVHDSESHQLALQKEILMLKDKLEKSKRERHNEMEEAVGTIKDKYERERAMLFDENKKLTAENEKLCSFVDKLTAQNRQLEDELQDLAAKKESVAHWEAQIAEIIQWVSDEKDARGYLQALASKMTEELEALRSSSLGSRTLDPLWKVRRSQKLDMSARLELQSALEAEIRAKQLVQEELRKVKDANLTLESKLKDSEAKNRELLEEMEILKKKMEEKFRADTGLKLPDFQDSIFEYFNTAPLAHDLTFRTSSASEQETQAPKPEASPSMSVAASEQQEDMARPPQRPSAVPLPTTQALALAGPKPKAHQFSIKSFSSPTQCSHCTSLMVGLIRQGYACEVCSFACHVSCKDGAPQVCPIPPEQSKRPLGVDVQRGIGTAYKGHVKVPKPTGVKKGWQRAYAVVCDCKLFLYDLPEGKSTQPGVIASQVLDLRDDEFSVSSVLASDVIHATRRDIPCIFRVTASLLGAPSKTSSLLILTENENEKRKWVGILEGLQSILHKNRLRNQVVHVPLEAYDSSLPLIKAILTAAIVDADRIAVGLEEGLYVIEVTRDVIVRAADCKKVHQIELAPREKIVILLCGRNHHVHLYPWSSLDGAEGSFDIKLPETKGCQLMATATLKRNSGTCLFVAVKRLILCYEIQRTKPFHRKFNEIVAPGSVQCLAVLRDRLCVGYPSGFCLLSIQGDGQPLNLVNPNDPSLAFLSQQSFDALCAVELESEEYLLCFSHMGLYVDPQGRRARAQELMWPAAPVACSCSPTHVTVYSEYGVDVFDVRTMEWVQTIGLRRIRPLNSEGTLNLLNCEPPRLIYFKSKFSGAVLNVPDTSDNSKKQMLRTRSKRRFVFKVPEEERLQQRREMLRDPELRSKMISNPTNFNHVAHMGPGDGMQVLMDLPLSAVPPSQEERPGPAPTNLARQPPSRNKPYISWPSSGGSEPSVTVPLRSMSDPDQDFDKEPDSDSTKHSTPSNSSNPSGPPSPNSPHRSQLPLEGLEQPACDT

Molecular target: T1, seven in absentia homolog 2 (Siah2), endogenous (human (endogenous in MKN45)) (UniProt O43255)
T1 sequence: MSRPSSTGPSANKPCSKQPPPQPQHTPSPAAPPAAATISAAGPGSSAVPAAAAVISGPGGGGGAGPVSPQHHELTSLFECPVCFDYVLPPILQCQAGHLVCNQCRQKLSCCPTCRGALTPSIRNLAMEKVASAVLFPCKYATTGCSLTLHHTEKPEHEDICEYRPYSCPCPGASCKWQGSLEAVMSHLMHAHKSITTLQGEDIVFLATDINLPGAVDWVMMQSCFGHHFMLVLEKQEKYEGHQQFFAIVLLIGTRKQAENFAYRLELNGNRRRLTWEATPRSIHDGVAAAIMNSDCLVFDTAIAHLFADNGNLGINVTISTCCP
Assay: co-IP; whole cell lysates of uninfected or H. pylori-infected (200 MOI, 12 h) MKN45 cells, with or without 50 µM MG132, immunoprecipitated with Siah2 antibody; western blot for MRCKβ

Substance: myotonic dystrophy kinase-related Cdc42-binding kinase β (MRCKβ), endogenous (from UniProt Q9Y5S2 1-1711) (enzyme)
- binding: binds
